The list shows a part of the results.

By UniProt entry, the sequences of proteins in these tests, tags left out.
UniProt Q0JBA9, entry or part of it: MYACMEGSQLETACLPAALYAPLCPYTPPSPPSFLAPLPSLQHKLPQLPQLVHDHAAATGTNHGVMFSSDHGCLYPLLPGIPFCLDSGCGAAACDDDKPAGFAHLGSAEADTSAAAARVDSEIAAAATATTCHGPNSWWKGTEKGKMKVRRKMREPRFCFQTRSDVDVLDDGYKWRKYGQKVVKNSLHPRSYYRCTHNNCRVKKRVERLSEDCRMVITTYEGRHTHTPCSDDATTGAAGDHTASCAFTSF

In the experiment the target is OsWRKY34 (Oryza sativa, UniProt Q0JBA9 1-250). The experiment in a line: protein-binding microarray (RPBM); PBS, 2% BSA, 51.3 ng/ul salmon testes DNA, 50 uM zinc acetate, 200 nM TF, 25 C, 1 h; high values mean tight binding. The conditions noted are these: protein: recombinant; tags: N-terminal polyhistidine and DsRed monomer fusion (pET32a); label: CyDye5-dUTP incorporated in the synthesized complementary strand; 3' TTTTT single-stranded linker to array surface; dsDNA, one strand shown. An outline of the steps:
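Using Ni–NTA, transcription factors fused N-terminally to polyhistidine and DsRed were purified after expression in E. coli BL21-CodonPlus. These were incubated at 200 nM with a blocked, double-stranded custom Agilent array for 1 h at 25 °C in a buffer containing 50 µM zinc acetate, and the array was washed. The binding signal is per-feature fluorescence intensity (arbitrary units) on an Axon 4000B scanner.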
For “CACCCCACCCACAAATTAAACACACCACCCTCAATATATACGGAGTCACCTAGTGCAG”, the binding signal is 9620 fluorescence intensity (a.u.). For “CCGTTGGCTTTTTTAAACATGTTTGACCGTTTATTTTATTCGGAGTCACCTAGTGCAG” the value was 14100 fluorescence intensity (a.u.); for “TCATCGCCATTCCTAACTCATCTCCGTTCCATACTCTTCTCGGAGTCACCTAGTGCAG”, 12700 fluorescence intensity (a.u.).

In the case of “CACCATGTACACATTCTCTCACAGTGCATGCATAAATTAACGGAGTCACCTAGTGCAG”, the binding signal was 8710 fluorescence intensity (a.u.). For “CCGCCGCCTCCGGCCGCCGTACCAGCCTCACCTCGCTTCGCGGAGTCACCTAGTGCAG” the value was 8980 fluorescence intensity (a.u.); for “TTTTAATTCTTGCTCCTGATTGAATCGCATCCCTCGACCACGGAGTCACCTAGTGCAG”, 9240 fluorescence intensity (a.u.); for “AAACAGGTCACTACTATCCTCCATATATATATATTTTAGACGGAGTCACCTAGTGCAG”, 9110 fluorescence intensity (a.u.). The figure for “GACGGGCGGGGCCCGACGGGGAGGAGGTAGGCGGGCTTGGCGGAGTCACCTAGTGCAG” is 11700 fluorescence intensity (a.u.). Consider “ATTAAATTCTTATCCATTCATCTCTCTCCTTTTATTCACACGGAGTCACCTAGTGCAG”, for which the binding signal was 9180 fluorescence intensity (a.u.). The figure for “GTCCTTTTTCTTACTGCTGTACATGTATGAAACTTGCACGCGGAGTCACCTAGTGCAG” is 9350 fluorescence intensity (a.u.); for “ATCATCCAATCCCTCTCGCGCTTTTTCATGTGGTTTCTCTCGGAGTCACCTAGTGCAG” it is 10700 fluorescence intensity (a.u.). As to “GATTAATTTGCCATTGGATCCAAGCACACTCCTAGGTAAGCGGAGTCACCTAGTGCAG”, the binding signal was 8910 fluorescence intensity (a.u.). As for “TTCACCGGCCGCGCGCTGTCTGTAGAACTCCCATACATGACGGAGTCACCTAGTGCAG”, the binding signal was 8640 fluorescence intensity (a.u.). The figure for “ATAGATGACGCCGTTGATTTTTTCTCACATGTTTGACCGTCGGAGTCACCTAGTGCAG” is 15600 fluorescence intensity (a.u.). The figure for “TCCAGTAGCCGCGCGTGCCCACGACGCACCACCCACACACCGGAGTCACCTAGTGCAG” is 9880 fluorescence intensity (a.u.); for “GTTCTCTTTTTTGTTTGTCTTTCCTAGTGCAATATGTTTCCGGAGTCACCTAGTGCAG” it is 10700 fluorescence intensity (a.u.); for “AATTCCCAAACTCCCGCCGCCGCCGCCGCCGCCATCGATGCGGAGTCACCTAGTGCAG” it is 8250 fluorescence intensity (a.u.).

On to “GTATGTCCGAGATTTAGTGTTACACGTCAGATCCAACACACGGAGTCACCTAGTGCAG”, for which the binding signal was 8570 fluorescence intensity (a.u.). For “GTGTTACCGTTGGCTTAGTTCACGCCTGACCATTTTTTTTCGGAGTCACCTAGTGCAG” the value was 12700 fluorescence intensity (a.u.); for “GACCATAAAGTAGGCCGTGACTGACATTCAGTTGTTTTACCGGAGTCACCTAGTGCAG”, 8030 fluorescence intensity (a.u.). As for “CCCAACTTTTCCACAATCCACAGCCTACATACACCGAGCACGGAGTCACCTAGTGCAG”, the binding signal was 8300 fluorescence intensity (a.u.). The figure for “CATGTCGGCCCATGTGAAAGCCATCTTCGCTTTTCTCTCCCGGAGTCACCTAGTGCAG” is 8570 fluorescence intensity (a.u.); for “AGACCACCACCTCCACCGCTGTCCGCGGCGACGGCAACCGCGGAGTCACCTAGTGCAG” it is 8200 fluorescence intensity (a.u.).

Turning to “TGCAAACACATTTAAACAGAAGTCAGCATACCATATCTATCGGAGTCACCTAGTGCAG”, the binding signal is 8050 fluorescence intensity (a.u.). The figure for “ACTGTGAATGTGTGACTAAATGGGCCGAGCCCAACTACTACGGAGTCACCTAGTGCAG” is 9860 fluorescence intensity (a.u.); for “CCAACTTCATGGCCAACCCACAATTCTGAATTCCACATGACGGAGTCACCTAGTGCAG” it is 9060 fluorescence intensity (a.u.). For “TGTGTTCGCCATCGATATCTGGTTGTAGGCACGTTGCATGCGGAGTCACCTAGTGCAG”, the binding signal is 9520 fluorescence intensity (a.u.). For “ATGAAACTAATTTAATGCTTTAAGTGTGTACTACATTTTTCGGAGTCACCTAGTGCAG” the value was 8170 fluorescence intensity (a.u.). The figure for “CCTGCGGATGCCATCCGTTGACTCCCGCATCCAGCTTCGCCGGAGTCACCTAGTGCAG” is 9170 fluorescence intensity (a.u.); for “TCTTACTTGCATGTGAACACCTCTTTGTCGGTTTTTCCATCGGAGTCACCTAGTGCAG” it is 10400 fluorescence intensity (a.u.). For “ATCTGTGCAAGTTTAAACACCGTCCATGCACTTCACTCAACGGAGTCACCTAGTGCAG” the value was 8320 fluorescence intensity (a.u.); for “AGTCTCACGGTTTCTGCTTTCCACATCCGCCGCGGCCATGCGGAGTCACCTAGTGCAG”, 9010 fluorescence intensity (a.u.); for “TTTGGGTGTTAGTGTCTTAATTAGTGTGTGAGCCCCATCCCGGAGTCACCTAGTGCAG”, 8880 fluorescence intensity (a.u.). For the sequence “CTCTTCTTCCTCGCCTCCGCGGGCTCCTTCTCCTTCTGGACGGAGTCACCTAGTGCAG”, the binding signal is 8720 fluorescence intensity (a.u.). For “CTCTTCACATAAGATGCCATCTCTTCTATCCATGCCTACACGGAGTCACCTAGTGCAG” the value was 11300 fluorescence intensity (a.u.); for “CGCATTCTTTTTTTCTTTTTTTTCTTCTCCCTCGCACATGCGGAGTCACCTAGTGCAG”, 10200 fluorescence intensity (a.u.); for “GGTGTGATACCACGATACGTATCCTGATACTGACAACCTTCGGAGTCACCTAGTGCAG”, 8360 fluorescence intensity (a.u.). As for “TTAAAACATGTTTCCATTATTTGATATCTTAACCTACCTTCGGAGTCACCTAGTGCAG”, the binding signal is 8030 fluorescence intensity (a.u.). For “CTCTTCCTTATCTCTTGTACTCTCTATATACACCGCCTCTCGGAGTCACCTAGTGCAG” the value was 11500 fluorescence intensity (a.u.); for “GCGGCTGTACTTTGGGTTAGCTTGACTTTTTAATTGCATACGGAGTCACCTAGTGCAG”, 10800 fluorescence intensity (a.u.); for “GTACTTTTCTTCCCAGCTACCCAGGTCTTGATCTGAAATCCGGAGTCACCTAGTGCAG”, 8340 fluorescence intensity (a.u.).

For “GAATCTCAATTCTGGGGTTTGGATTTGGTGTTGCGTCCGGCGGAGTCACCTAGTGCAG”, the binding signal was 8810 fluorescence intensity (a.u.).

The values are drawn from article PMC7819943, “Rice protein-binding microarrays: a tool to detect cis-acting elements near promoter regions in rice”.
